PubChem BioAssay AID686943, Drosophila RNAi Screening Center – 2013
Purpose: 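Knockdowns that increase or decrease active ERK after insulin receptor stimulation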 (primary screen). System: Drosophila S2R+ haemocyte-like cells expressing YFP-tagged ERK (Rolled). Reagent: long dsRNA against Drosophila genes. Treatment: insulin stimulation versus unstimulated cells; dose and duration not given. Measurement: 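Per-plate z-scores of phospho-ERK immunostaining normalised to YFP-tagged ERK, measured with and without insulin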. Scale: replicate 1, z-score of dpERK with insulin and replicate 2, z-score of dpERK with insulin: higher = more active ERK per ERK-YFP after insulin; replicate 1, z-score of dpERK under basal conditions: higher = more basal active ERK per ERK-YFP.
In all, the deposit lists about 23,000 reagents; shown is an unselected part of those that have a named target and a result. 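Extra replicates exist only for a retested subset of genes; insulin dose and duration not given; both raised and lowered dpERK matter.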 A plus sign joins genes that one reagent is predicted to hit. Not all columns of the deposit are shown. Not stated in the record: the amount of reagent, the time to read-out.

gene	DRSC id	replicate 1, z-score of dpERK with insulin	replicate 2, z-score of dpERK with insulin	replicate 1, z-score of dpERK under basal conditions
Oli (Olig family)	DRSC02866	0.15	0.15	0.05
yellow-g	DRSC08575	0.1	1.2	-2.9
Brd (Bearded)	DRSC09685	0.38	0.62	1.18
CG31867	DRSC03338	-0.29	-0.97	-0.71
CG13747	DRSC06418	-3.19	-0.48	2.47
CG11147	DRSC02129	0.38	-0.52	-1.46
CG5550	DRSC06943	-0.3	-1.03	-1.25
iotaTry (iotaTrypsin)	DRSC07634	-0.21	-0.51	0.28
CG2444	DRSC19846	-0.81	-0.61	-0.19
CG7546	DRSC08885	1.13	0.68	-0.21
CG7546	DRSC10871	0.44	0.28	0.04
CG7546	DRSC22148	0.7	-0.31	-0.3
CG42680	DRSC01399	0.22	-0.05	-0.95
UbcE2M (NEDD8-conjugating enzyme UbcE2M)	DRSC10828	0.75	-0.28	-1.15
l(3)72Dr (lethal (3) 72Dr)	DRSC10478	-0.07	-0.38	0.29
Oatp26F (Organic anion transporting polypeptide 26F)	DRSC02149	0.46	0.27	0.96
Oatp26F (Organic anion transporting polypeptide 26F)	DRSC02272	0.05	-0.36	-0.02
Oatp26F (Organic anion transporting polypeptide 26F)	DRSC02695	0.42	0.49	-0.3
CG5440	DRSC00685	-0.47	0.03	-0.16
Or19b + Or19a	DRSC22604	0.06	0.5	0.13
CAH15 (Carbonic anhydrase 15)	DRSC04534	0.1	-0.03	-0.01
CG31533	DRSC13018	0.35	0.45	-0.09
ACC (Acetyl-CoA carboxylase)	DRSC06059	-3.01	-2.78	-1.04
ACC (Acetyl-CoA carboxylase)	DRSC07249	1.03	-0.14	-1.54
CG42336	DRSC05273	0.39	-0.92	-0.6
CG42336	DRSC06332	0.31	0.6	2.1
CG42336	DRSC06333	0.19	-0.31	-0.16
SkpE (SKP1-related E)	DRSC19431	0.05	0.04	0.3
CG31861	DRSC21665	-0.1	-1.24	-0.65
CG13255	DRSC11702	0.31	-0.06	0.38
Dpp10 (Dipeptidyl peptidase 10)	DRSC00942	-1.4	-0.77	0.5
Dpp10 (Dipeptidyl peptidase 10)	DRSC02139	0.45	0.36	0.79
CG43102	DRSC13261	-0.29	0.31	-0.44
CG43102	DRSC14797	0.55	0	0.59
CG43102	DRSC16239	0.56	2.27	0.31
Cks30A (Cyclin-dependent kinase subunit 30A)	DRSC03292	0.06	-0.09	-0.06
Lmpt (Limpet)	DRSC09450	0.88	0.28	0.92
Lmpt (Limpet)	DRSC09864	-0.54	0.33	0.2
Lmpt (Limpet)	DRSC09865	-0.04	-0.1	0.71
Lmpt (Limpet)	DRSC09866	0.82	0.02	0
Lmpt (Limpet)	DRSC11107	0.91	-0.5	0.02
Lmpt (Limpet)	DRSC21738	-1.43	-1.61	-0.73
Lmpt (Limpet)	DRSC22921	-0.17	-0.66	2.86
CG17816	DRSC15277	-1.61	-1.49	-0.64
PH4alphaPV (prolyl-4-hydroxylase-alpha PV)	DRSC22400	0.17	0.95	0.77
BOD1 (Biorientation Defective 1)	DRSC15824	0.41	-0.75	0.38
CG5687	DRSC08568	1.83	0.36	-1.29
ptc (patched)	DRSC05117	-0.51	-0.89	0.16
ptc (patched)	DRSC07669	-0.28	0.04	0.46
C901	DRSC19351	0.31	0.38	-2.26
CG33523	DRSC09814	-0.02	-0.55	-1.12
CG33523	DRSC22155	-0.6	0.33	-0.07
CG11257	DRSC06068	-0.28	0	1.38
hiw (highwire)	DRSC20338	1.23	0.53	0.75
hiw (highwire)	DRSC20339	-1.23	-0.68	-0.58
frma (fra mauro)	DRSC18297	0.29	0.09	-0.19
Mf (Myofilin)	DRSC16120	0.33	-0.58	0.31

6 of these entries, set out differently.
gene | DRSC id | replicate 1, z-score of dpERK with insulin | replicate 2, z-score of dpERK with insulin | replicate 1, z-score of dpERK under basal conditions
CG7546 | DRSC08885 | 1.13 | 0.68 | -0.21
CG7546 | DRSC10871 | 0.44 | 0.28 | 0.04
CG7546 | DRSC22148 | 0.7 | -0.31 | -0.3
CG42680 | DRSC01399 | 0.22 | -0.05 | -0.95
UbcE2M (NEDD8-conjugating enzyme UbcE2M) | DRSC10828 | 0.75 | -0.28 | -1.15
l(3)72Dr (lethal (3) 72Dr) | DRSC10478 | -0.07 | -0.38 | 0.29
